Measurements as given in patent publication US20240041922A1, “METHODS AND COMPOSITIONS” (Monash University, priority 2020, published 2024).
No constants are given. Whether binding was seen depends on the method and setting. Some results given as binding are weak or reduced against the parent protein; the word gives no strength.

By UniProt entry, the sequences of proteins in these tests, tags left out. Residues count along the entry.
UniProt P51681: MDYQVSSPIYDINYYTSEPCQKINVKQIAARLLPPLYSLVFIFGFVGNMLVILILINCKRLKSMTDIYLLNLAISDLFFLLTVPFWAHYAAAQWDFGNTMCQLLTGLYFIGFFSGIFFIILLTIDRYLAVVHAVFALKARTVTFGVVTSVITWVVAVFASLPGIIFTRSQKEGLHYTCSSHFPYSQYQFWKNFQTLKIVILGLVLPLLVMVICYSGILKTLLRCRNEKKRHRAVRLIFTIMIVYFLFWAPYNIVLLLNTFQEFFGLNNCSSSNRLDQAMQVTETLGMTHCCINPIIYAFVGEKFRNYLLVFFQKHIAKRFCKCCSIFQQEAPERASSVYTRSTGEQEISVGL
UniProt P51682: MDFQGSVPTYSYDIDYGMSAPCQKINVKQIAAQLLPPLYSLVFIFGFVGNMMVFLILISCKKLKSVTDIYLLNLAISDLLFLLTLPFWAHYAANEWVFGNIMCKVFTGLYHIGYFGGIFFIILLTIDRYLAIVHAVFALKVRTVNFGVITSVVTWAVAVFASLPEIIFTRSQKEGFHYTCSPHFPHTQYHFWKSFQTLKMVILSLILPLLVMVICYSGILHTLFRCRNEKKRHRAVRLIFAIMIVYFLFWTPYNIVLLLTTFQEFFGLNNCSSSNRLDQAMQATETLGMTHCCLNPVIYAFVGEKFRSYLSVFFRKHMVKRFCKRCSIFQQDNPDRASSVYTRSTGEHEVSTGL
UniProt P43490, residues 27-491: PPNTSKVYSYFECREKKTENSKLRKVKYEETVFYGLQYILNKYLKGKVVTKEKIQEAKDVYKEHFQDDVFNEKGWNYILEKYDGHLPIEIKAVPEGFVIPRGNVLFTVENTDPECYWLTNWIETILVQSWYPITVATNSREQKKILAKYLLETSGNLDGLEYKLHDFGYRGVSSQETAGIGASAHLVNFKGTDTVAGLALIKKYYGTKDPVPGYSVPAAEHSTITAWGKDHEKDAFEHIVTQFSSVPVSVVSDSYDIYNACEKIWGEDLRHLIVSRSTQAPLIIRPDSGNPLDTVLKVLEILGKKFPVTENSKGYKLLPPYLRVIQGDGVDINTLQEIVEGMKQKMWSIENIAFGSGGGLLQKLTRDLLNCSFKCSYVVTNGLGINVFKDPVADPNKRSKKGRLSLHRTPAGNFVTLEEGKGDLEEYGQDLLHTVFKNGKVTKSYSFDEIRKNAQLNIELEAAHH

How the values were obtained:
[1] = target: GST-fused recombinant human CCR5 (Abcam) (human) (UniProt P51681); assay: ELISA: plate coated with hrCCR5, bound hrNAMPT(1) detected with a biotinylated anti-NAMPT antibody, non-specific binding to BSA deducted
[2] = target: recombinant mouse CCR5 (MyBioSource) (mouse) (UniProt P51682); assay: competition ELISA: plate coated with mrCCR5, 100 nM hrNAMPT(1) with rising mrCCL4; bound hrNAMPT(1) detected with a biotinylated anti-NAMPT antibody, BSA deducted
[3] = target: GST-fused recombinant human CCR5 (Abcam) (human) (UniProt P51681); assay: ELISA on coated hrCCR5 against BSA

Measured: binding

human recombinant NAMPT(1) (recombinant human visfatin, PeproTech) (from UniProt P43490 27-491) (ligand)
binds: all assays above
